In publication PMC4999191:
Results are given in words; binding and its absence hold for the method and conditions named. In cells and extracts the contact can be indirect. Some results given as binding are weak or reduced against the parent protein; the word gives no strength.

Protein sequences, listed by entry. Tags and fused reporters are not part of them. Lines headed by an entry give the natural chain unless they say otherwise; changes in a name come on top. Residues count along the entry.
full-length mouse polycystin-1 (PC1), wild-type (O08852, residues 24-4293): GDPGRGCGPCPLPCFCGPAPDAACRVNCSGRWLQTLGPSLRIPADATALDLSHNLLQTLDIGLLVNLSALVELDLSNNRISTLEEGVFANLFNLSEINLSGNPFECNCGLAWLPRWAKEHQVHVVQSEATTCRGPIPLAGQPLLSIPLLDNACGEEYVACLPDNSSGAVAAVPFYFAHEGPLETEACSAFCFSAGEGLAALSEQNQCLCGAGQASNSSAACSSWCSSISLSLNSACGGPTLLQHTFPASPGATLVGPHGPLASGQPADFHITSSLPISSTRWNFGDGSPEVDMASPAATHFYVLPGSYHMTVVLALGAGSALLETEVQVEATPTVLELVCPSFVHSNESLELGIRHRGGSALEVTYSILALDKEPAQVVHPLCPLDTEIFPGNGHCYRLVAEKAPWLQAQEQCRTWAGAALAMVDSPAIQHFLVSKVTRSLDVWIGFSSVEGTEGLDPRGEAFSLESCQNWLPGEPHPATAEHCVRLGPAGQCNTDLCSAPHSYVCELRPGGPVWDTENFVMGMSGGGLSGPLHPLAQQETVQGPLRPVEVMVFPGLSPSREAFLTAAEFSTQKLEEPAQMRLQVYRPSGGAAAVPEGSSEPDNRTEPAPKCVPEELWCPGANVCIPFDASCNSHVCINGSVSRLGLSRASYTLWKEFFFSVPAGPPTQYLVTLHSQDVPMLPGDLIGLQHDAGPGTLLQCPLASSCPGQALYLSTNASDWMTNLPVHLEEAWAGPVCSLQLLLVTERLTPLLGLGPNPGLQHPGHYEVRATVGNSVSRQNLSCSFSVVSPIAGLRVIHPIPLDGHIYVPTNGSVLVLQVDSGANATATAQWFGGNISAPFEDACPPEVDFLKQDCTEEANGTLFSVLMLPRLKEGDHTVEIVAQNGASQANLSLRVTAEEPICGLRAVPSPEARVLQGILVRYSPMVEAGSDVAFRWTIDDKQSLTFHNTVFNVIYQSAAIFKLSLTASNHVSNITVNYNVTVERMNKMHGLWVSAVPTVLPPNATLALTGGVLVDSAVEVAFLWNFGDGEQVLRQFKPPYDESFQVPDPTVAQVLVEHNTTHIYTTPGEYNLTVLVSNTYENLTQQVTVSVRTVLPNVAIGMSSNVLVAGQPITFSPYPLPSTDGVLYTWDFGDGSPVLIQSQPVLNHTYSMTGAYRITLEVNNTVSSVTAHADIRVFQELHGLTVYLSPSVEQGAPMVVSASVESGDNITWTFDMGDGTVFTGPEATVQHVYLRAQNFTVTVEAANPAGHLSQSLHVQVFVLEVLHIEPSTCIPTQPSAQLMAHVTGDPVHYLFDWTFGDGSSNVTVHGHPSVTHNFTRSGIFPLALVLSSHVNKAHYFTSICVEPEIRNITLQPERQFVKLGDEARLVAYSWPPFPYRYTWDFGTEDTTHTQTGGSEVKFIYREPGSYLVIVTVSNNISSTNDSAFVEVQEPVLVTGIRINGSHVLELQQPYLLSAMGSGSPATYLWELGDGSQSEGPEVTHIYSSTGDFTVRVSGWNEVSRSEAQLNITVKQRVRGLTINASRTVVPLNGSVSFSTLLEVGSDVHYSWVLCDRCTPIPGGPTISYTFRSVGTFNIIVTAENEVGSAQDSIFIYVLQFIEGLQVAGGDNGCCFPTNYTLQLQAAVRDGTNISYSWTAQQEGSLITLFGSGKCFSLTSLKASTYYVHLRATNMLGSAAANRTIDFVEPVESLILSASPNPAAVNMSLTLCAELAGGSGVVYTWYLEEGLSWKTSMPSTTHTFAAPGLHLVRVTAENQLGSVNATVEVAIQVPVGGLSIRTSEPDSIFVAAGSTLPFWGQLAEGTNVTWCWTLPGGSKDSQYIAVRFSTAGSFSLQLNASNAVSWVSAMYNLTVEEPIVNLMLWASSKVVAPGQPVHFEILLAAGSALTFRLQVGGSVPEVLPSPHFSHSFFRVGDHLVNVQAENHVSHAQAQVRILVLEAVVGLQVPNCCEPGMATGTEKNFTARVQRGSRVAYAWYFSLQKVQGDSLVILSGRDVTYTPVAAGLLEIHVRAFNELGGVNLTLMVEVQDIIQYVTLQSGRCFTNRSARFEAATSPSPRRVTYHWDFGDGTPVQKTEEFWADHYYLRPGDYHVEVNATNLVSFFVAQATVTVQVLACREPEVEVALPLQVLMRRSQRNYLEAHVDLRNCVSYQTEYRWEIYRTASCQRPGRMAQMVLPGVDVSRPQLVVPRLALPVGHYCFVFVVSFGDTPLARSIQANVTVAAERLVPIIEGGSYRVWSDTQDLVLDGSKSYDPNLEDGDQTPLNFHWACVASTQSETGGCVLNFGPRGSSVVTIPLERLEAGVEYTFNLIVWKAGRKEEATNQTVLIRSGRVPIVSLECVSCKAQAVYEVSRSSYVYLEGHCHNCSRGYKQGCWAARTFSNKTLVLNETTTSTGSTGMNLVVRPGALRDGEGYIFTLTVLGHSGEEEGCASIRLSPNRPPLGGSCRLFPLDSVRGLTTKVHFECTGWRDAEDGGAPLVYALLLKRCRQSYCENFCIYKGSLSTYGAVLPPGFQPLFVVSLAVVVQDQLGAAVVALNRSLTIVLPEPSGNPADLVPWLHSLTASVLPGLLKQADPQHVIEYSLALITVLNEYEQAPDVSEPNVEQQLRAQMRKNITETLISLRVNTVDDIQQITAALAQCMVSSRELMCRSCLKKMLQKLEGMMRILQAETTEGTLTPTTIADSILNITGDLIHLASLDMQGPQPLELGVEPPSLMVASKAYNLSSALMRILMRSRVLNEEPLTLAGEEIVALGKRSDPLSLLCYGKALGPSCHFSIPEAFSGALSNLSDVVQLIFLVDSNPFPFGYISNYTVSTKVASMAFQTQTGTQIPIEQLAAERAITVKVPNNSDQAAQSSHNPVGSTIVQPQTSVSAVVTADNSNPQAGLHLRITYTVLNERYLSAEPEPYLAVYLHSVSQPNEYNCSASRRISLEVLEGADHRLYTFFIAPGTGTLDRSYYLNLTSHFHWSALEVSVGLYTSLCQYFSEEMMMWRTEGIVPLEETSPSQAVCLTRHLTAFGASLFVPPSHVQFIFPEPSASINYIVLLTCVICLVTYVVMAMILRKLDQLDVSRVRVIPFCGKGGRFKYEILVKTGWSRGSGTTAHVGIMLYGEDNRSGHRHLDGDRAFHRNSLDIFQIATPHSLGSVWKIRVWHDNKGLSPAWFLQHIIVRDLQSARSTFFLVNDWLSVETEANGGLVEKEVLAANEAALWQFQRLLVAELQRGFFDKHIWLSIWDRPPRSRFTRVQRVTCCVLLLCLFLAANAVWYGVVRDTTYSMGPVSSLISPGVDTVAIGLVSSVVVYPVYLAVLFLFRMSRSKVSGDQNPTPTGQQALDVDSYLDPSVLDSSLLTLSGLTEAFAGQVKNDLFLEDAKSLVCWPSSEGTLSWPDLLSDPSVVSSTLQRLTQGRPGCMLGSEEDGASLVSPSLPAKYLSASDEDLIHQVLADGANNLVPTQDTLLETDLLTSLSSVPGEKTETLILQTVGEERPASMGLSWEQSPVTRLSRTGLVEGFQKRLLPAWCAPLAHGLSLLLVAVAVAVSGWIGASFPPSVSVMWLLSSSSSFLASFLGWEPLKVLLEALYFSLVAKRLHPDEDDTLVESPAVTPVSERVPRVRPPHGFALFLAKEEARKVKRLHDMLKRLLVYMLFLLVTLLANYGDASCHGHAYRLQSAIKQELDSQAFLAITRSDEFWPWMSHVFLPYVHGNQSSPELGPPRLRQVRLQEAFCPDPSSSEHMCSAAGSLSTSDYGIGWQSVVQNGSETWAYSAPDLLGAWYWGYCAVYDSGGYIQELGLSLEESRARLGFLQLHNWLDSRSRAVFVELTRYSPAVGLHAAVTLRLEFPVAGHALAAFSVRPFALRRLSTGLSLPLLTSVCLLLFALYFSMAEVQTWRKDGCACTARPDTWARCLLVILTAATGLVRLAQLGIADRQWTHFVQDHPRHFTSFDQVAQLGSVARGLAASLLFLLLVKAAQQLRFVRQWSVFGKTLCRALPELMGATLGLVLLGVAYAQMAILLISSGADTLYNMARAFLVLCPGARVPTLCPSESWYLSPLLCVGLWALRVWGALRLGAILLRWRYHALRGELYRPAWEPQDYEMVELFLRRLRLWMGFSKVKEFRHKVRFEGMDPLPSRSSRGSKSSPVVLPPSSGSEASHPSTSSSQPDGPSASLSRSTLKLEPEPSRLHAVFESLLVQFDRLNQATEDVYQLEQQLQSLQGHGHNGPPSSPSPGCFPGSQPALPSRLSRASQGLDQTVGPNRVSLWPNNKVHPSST

Columns and labels:
[1] = biological target: full-length mouse polycystin-1 (PC1) S4134D (mouse) (UniProt O08852); assay: co-IP; PC2 co-expressed with wild-type or S4134D full-length mouse PC1 in HEK293T cells; co-immunoprecipitation from lysates
[2] = biological target: full-length mouse polycystin-1 (PC1), wild-type (mouse) (UniProt O08852); assay: as above

binding [1]: binds
binding [2]: binds
B1: polycystin-2 (PC2) (protein, UniProt Q13563 1-968)
chain: MVNSSRVQPQQPGDAKRPPAPRAPDPGRLMAGCAAVGASLAAPGGLCEQRGLEIEMQRIRQAAARDPPAGAAASPSPPLSSCSRQAWSRDNPGFEAEEEEEEVEGEEGGMVVEMDVEWRPGSRRSAASSAVSSVGARSRGLGGYHGAGHPSGRRRRREDQGPPCPSPVGGGDPLHRHLPLEGQPPRVAWAERLVRGLRGLWGTRLMEESSTNREKYLKSVLRELVTYLLFLIVLCILTYGMMSSNVYYYTRMMSQLFLDTPVSKTEKTNFKTLSSMEDFWKFTEGSLLDGLYWKMQPSNQTEADNRSFIFYENLLLGVPRIRQLRVRNGSCSIPQDLRDEIKECYDVYSVSSEDRAPFGPRNGTAWIYTSEKDLNGSSHWGIIATYSGAGYYLDLSRTREETAAQVASLKKNVWLDRGTRATFIDFSVYNANINLFCVVRLLVEFPATGGVIPSWQFQPLKLIRYVTTFDFFLAACEIIFCFFIFYYVVEEILEIRIHKLHYFRSFWNCLDVVIVVLSVVAIGINIYRTSNVEVLLQFLEDQNTFPNFEHLAYWQIQFNNIAAVTVFFVWIKLFKFINFNRTMSQLSTTMSRCAKDLFGFAIMFFIIFLAYAQLAYLVFGTQVDDFSTFQECIFTQFRIILGDINFAEIEEANRVLGPIYFTTFVFFMFFILLNMFLAIINDTYSEVKSDLAQQKAEMELSDLIRKGYHKALVKLKLKKNTVDDISESLRQGGGKLNFDELRQDLKGKGHTDAEIEAIFTKYDQDGDQELTEHEHQQMRDDLEKEREDLDLDHSSLPRPMSSRSFPRSLDDSEEDDDEDSGHSSRRRGSISSGVSYEEFQVLVRRVDRMEHSIGSIVSKIDAVIVKLEIMERAKLKRREVLGRLLDGVAEDERLGRDSEIHREQMERLVREELERWESDDAASQISHGLGTPVGLNGQPRPRSSRPSSSQSTEGMEGAGGNGSSNVHV
